Binding data for 1 molecule are collected here from patent US7067619.

No constants are given. Whether binding was seen depends on the method and setting. Binding can be weak; no strength is given.

The target in the assay is αvβ1 integrin on CHO cell line B2/v7. The assay is described as follows: cell attachment to peptide coated on plastic.

B1: cyclic peptide … (peptide)
peptide: GACRRETAWACGA
modifications: disulfide bond between the two cysteines (cyclic)
B1: the binding entry is given as “binds”.
